The record followed here is the supplement of paper PMC10849652.

Sequences of proteins named here, by UniProt entry; tags and fusion partners are left off. A change or cut given only in a name is not applied to a line headed by its entry.
UniProt Q96K31: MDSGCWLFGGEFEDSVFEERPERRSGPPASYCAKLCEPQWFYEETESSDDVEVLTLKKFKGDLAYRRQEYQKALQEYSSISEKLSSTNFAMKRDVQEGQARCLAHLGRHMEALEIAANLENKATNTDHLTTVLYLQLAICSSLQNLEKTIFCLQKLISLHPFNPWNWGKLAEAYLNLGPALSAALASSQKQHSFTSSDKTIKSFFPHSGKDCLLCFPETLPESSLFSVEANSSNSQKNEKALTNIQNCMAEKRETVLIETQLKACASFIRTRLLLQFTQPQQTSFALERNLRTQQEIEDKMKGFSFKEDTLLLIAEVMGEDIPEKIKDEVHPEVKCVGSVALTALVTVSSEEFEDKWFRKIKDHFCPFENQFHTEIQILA
UniProt Q6UWU4: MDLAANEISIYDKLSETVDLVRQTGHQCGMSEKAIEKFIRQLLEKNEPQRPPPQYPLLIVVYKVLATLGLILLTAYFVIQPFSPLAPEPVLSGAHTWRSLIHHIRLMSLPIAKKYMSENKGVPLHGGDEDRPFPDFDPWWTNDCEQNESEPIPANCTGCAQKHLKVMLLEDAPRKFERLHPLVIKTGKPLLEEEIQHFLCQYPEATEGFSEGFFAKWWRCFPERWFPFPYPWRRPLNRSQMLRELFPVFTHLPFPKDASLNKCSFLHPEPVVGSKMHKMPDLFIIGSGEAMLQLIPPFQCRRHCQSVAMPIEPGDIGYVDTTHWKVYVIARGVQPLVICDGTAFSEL
UniProt Q9P1Z2: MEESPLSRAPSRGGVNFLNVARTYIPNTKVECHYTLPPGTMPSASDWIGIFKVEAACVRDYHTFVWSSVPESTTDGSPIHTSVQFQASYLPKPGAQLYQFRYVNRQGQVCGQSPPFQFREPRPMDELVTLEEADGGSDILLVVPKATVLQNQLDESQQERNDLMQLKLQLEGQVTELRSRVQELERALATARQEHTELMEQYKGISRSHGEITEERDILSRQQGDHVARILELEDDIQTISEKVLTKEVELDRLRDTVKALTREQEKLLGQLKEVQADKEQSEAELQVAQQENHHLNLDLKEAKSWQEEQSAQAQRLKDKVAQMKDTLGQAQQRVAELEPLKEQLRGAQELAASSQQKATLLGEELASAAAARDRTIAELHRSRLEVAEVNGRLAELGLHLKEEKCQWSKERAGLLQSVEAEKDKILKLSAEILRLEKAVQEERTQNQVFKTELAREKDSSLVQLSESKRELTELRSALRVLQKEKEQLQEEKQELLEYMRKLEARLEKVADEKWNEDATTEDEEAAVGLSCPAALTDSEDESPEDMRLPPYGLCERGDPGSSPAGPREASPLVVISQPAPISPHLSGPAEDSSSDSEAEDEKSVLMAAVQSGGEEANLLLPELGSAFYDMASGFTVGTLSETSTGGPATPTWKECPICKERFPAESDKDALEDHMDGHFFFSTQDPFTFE
UniProt Q96EU7: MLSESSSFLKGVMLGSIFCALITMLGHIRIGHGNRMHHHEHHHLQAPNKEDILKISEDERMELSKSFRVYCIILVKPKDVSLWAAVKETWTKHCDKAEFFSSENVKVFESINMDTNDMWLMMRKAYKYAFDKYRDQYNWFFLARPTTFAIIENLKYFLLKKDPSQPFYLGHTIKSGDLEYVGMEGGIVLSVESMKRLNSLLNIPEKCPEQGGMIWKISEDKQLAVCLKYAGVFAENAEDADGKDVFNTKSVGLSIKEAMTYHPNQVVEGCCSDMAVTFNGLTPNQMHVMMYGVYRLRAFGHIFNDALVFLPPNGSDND
UniProt Q8IXQ3: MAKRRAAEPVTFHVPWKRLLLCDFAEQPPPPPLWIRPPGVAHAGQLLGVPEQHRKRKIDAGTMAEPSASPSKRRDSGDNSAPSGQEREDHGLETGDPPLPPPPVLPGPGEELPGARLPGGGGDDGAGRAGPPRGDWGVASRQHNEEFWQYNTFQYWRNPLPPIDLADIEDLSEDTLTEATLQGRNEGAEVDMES
UniProt Q14444, whole entry, looked up: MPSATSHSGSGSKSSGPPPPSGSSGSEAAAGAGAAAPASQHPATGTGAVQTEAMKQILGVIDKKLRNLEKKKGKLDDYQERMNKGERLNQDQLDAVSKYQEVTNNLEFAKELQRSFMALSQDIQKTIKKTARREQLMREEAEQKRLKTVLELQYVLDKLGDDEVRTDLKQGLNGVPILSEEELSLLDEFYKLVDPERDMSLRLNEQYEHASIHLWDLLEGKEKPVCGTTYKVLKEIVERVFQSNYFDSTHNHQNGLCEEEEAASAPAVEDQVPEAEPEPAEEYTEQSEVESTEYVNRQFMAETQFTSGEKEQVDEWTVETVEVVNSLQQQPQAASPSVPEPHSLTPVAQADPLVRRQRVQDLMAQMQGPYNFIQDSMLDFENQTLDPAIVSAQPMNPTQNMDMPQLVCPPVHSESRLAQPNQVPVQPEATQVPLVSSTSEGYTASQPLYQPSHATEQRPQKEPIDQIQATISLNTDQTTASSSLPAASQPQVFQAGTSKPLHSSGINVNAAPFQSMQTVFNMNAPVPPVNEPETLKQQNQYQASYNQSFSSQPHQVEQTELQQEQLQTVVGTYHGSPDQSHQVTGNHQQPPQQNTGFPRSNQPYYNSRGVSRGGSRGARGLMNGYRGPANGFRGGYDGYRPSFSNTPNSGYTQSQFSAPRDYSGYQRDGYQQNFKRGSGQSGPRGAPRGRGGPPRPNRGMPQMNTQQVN
UniProt Q9H3H3: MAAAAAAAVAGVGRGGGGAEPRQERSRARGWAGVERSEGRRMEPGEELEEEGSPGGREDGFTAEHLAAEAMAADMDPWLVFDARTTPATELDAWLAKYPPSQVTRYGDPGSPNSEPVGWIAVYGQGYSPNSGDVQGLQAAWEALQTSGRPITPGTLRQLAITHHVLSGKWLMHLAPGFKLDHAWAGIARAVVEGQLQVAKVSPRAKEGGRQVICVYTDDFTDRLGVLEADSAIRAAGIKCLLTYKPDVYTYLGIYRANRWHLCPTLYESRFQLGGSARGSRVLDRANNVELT
UniProt Q8WUQ7: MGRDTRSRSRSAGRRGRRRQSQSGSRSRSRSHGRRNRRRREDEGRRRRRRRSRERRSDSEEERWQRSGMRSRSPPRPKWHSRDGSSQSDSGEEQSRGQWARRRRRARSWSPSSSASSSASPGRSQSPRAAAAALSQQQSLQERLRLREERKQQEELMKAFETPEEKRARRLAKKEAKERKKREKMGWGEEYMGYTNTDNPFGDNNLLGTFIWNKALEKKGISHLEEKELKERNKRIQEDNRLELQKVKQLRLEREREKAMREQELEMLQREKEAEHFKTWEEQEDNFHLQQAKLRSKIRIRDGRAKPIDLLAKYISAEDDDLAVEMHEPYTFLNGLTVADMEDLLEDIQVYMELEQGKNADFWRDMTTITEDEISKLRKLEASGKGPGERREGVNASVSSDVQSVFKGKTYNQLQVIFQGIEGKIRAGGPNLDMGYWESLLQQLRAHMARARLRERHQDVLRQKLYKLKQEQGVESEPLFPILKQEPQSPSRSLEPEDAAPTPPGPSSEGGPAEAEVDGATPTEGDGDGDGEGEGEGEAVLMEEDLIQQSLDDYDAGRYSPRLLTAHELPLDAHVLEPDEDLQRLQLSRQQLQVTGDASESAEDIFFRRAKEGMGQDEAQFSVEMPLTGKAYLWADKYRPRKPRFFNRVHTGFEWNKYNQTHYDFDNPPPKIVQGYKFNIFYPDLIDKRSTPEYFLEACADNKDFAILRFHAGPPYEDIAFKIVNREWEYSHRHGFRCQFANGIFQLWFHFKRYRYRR
UniProt Q8TCD1: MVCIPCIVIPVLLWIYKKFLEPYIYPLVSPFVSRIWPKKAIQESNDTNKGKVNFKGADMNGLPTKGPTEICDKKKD
UniProt Q96LW7: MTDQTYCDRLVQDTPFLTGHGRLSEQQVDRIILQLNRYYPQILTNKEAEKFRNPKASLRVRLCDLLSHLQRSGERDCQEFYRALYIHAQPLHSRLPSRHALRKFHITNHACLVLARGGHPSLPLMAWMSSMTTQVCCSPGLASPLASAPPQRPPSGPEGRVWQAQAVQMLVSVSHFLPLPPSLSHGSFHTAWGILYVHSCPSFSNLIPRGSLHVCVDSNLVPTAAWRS
UniProt Q8N999, whole entry, looked up: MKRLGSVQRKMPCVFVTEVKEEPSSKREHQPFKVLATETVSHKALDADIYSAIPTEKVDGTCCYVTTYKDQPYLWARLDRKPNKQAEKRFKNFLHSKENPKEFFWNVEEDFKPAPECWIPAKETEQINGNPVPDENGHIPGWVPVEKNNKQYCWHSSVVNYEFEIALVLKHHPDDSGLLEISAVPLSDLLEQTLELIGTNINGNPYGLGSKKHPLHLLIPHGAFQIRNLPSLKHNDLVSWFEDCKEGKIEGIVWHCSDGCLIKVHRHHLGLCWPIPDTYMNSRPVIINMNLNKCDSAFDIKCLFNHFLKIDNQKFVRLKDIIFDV
UniProt Q9Y376: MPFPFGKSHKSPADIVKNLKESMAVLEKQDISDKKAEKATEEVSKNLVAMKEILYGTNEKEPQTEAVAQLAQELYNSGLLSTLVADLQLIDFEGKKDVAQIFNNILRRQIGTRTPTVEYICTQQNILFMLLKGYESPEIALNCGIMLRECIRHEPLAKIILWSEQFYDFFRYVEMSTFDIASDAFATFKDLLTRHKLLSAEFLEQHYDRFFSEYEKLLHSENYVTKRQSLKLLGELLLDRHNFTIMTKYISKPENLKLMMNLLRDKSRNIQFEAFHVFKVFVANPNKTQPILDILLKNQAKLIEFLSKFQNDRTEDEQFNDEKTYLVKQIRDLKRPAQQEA
UniProt Q9Y297: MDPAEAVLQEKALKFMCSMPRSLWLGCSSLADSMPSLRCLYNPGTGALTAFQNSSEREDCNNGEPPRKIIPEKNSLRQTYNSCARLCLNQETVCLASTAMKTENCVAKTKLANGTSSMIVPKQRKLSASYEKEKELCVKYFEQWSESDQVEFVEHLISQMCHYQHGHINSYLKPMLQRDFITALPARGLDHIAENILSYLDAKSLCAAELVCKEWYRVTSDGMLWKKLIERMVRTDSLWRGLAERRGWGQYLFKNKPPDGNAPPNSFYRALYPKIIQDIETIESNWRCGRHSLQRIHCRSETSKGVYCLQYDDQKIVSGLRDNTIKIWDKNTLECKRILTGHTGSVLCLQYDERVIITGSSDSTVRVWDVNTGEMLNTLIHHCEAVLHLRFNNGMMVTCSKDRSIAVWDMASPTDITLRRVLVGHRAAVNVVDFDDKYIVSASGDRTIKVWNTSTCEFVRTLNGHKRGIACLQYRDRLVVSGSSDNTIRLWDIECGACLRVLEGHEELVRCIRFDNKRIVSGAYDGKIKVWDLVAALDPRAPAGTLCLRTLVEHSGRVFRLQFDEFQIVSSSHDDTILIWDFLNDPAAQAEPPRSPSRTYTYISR
UniProt Q8N6N3: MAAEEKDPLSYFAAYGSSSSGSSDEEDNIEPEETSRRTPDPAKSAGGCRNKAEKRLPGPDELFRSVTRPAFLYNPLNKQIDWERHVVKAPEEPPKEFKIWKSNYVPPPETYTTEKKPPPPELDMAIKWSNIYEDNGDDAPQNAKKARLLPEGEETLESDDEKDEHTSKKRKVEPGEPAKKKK
UniProt Q8N1Q1: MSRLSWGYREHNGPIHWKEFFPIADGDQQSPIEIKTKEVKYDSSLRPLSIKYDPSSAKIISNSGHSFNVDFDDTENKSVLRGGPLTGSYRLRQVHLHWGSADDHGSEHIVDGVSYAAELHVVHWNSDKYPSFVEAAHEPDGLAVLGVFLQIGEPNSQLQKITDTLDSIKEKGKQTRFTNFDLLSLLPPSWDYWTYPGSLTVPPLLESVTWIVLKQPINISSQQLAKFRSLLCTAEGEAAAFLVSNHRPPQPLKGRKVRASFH
UniProt Q96GQ5: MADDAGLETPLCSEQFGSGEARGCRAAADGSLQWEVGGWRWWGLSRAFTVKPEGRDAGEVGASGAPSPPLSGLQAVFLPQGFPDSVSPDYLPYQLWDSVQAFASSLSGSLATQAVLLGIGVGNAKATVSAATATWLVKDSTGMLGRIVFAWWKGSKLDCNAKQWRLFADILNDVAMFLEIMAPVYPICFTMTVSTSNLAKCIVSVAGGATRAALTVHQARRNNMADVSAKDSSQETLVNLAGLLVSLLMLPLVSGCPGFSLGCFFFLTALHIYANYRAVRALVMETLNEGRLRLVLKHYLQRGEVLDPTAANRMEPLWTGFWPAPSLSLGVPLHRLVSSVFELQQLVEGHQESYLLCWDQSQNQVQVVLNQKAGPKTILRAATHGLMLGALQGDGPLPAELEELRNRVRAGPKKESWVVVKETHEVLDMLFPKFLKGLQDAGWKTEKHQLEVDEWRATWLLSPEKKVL
UniProt Q96B23: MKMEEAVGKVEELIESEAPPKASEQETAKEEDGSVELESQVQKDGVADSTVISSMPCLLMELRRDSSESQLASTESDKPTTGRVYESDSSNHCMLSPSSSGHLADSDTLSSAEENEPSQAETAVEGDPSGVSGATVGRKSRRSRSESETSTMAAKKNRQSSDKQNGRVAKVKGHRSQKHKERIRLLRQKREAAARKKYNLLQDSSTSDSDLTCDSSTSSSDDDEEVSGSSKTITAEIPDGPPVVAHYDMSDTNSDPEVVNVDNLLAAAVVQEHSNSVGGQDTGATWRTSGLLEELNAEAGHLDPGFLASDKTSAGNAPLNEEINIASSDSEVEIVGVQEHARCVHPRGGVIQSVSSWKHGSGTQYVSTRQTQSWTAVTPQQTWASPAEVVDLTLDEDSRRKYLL

The other results are listed elsewhere or left out.

Compound in one test: NC1(c2ccc(-c3nc4ccn5c(=O)[nH]nc5c4cc3-c3ccccc3)cc2)CCC1
As to the kind of experiment: log2 fold change, soluble protein after heating vs DMSO (PISA); higher = thermal stabilisation; K562 cells, 10 uM, 30 min; active = over 0.2 and 3.5 SD of the protein, either way, in both replicates (recomputed). An outline of the steps:
(§1)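 For each measurement, 10 μM compound was applied for 30 min to K562 cells at 2×10^6 cells/mL. Aliquots were heated for 3 min across 48°C-58°C, pooled, and extracted in PBS with 0.5% NP-40 at 4°C; the supernatant after 21,000xg for 90 min was soluble protein. This was quantified by TMTpro 16plex LC-MS/MS with channel sums equalised, and thermal stability was reported relative to control samples from duplicates, on a log2 fold-change scale.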
Regarding C8orf76 (UniProt Q96K31), the log2 fold change is inactive: 0.062.
Still for that read-out and setting: to C6orf89 isoform 2 (UniProt Q6UWU4) belongs inactive: 0.016.
Still for that read-out and setting: to CALCOCO1 (UniProt Q9P1Z2) belongs inactive: -0.007.
Same read-out and setting: for CALU isoform 4 (UniProt O43852) the value was inactive: -0.016; for C1GALT1C1 (UniProt Q96EU7), inactive: -0.046; for C9orf40 (UniProt Q8IXQ3), inactive: 0.014.
On to CAPRIN1 (UniProt Q14444), for which the log2 fold change was inactive: 0.277.
For the target C11orf68 (UniProt Q9H3H3), the log2 fold change is inactive: -0.019.
With CACTIN isoform 2 (UniProt Q8WUQ7), the log2 fold change was inactive: -0.054.
As to C18orf32 (UniProt Q8TCD1), the log2 fold change was inactive: 0.037.
The same measure, in the same setting: for C1GALT1 (UniProt Q9NS00) the value was inactive: -0.031.
For the target CARD19 isoform 2 (UniProt Q96LW7), the log2 fold change is inactive: 0.116.
With C17orf80 (UniProt Q9BSJ5), the log2 fold change was inactive: -0.069.
Same read-out and setting: to CANX isoform 2 (UniProt P27824) belongs inactive: -0.013; to C4BPA (UniProt P04003), inactive: 0.242; to C12orf29 (UniProt Q8N999), inactive: -0.038.
Still for that read-out and setting: to CAB39 (UniProt Q9Y376) belongs inactive: -0.006; to BTRC (UniProt Q9Y297), inactive: -0.028.
As to BUB1B isoform 3 (UniProt O60566), the log2 fold change is inactive: -0.113.
Still for that read-out and setting: to C12orf73 (UniProt Q69YU5) belongs inactive: 0.034; to C9orf78 (UniProt Q9NZ63), inactive: 0.029; to C1orf52 (UniProt Q8N6N3), inactive: 0.046.
On the same count and under the same terms, for CAD (UniProt P27708) the value was inactive: -0.145; for CA13 (UniProt Q8N1Q1), inactive: -0.014; for CALB1 (UniProt P05937), inactive: -0.161.
Take C1D (UniProt Q13901): the log2 fold change is inactive: 0.
With C16orf58 (UniProt Q96GQ5), the log2 fold change was inactive: -0.111.
For C9orf72 (UniProt Q96LT7), the log2 fold change is inactive: -0.148.
Still for that read-out and setting: to C19orf53 (UniProt Q9UNZ5) belongs inactive: 0.279.
Turning to CAPZB isoform 2 (UniProt P47756), the log2 fold change is inactive: -0.005.
Take C18orf25 isoform 2 (UniProt Q96B23): the log2 fold change was inactive: -0.038.
Same read-out and setting: to CARD8 isoform 5 (UniProt Q9Y2G2) belongs inactive: 0.15.

Compound in another test: NCC(=O)Nc1ccc(-n2nc(C(F)(F)F)cc2-c2ccc3c(ccc4ccccc43)c2)cc1
The test is described as above. A digest of the protocol: as §1
Turning to C8orf76 (UniProt Q96K31), the log2 fold change was inactive: 0.01.
On the same count and under the same terms, to C6orf89 isoform 2 (UniProt Q6UWU4) belongs inactive: -0.006.
The same measure, in the same setting: for CALCOCO1 (UniProt Q9P1Z2) the value was inactive: -0.02; for CALU isoform 4 (UniProt O43852), inactive: -0.047; for C1GALT1C1 (UniProt Q96EU7), inactive: -0.118.
Regarding C9orf40 (UniProt Q8IXQ3), the log2 fold change is inactive: 0.085.
As to CAPRIN1 (UniProt Q14444), the log2 fold change is inactive: 0.032.
Same read-out and setting: to C11orf68 (UniProt Q9H3H3) belongs inactive: -0.041; to CACTIN isoform 2 (UniProt Q8WUQ7), inactive: -0.155.
Turning to C18orf32 (UniProt Q8TCD1), the log2 fold change is inactive: -0.101.
Take C1GALT1 (UniProt Q9NS00): the log2 fold change is inactive: 0.054.
On the same count and under the same terms, for CARD19 isoform 2 (UniProt Q96LW7) the value was inactive: -0.121; for C17orf80 (UniProt Q9BSJ5), inactive: 0.16; for CANX isoform 2 (UniProt P27824), inactive: 0.021.
For C12orf29 (UniProt Q8N999), the log2 fold change was inactive: -0.055.
Same read-out and setting: to CAB39 (UniProt Q9Y376) belongs inactive: 0.034.
For BTRC (UniProt Q9Y297), the log2 fold change is inactive: -0.286.
Regarding BUB1B isoform 3 (UniProt O60566), the log2 fold change was inactive: -0.039.
On the same count and under the same terms, to BTN2A1 (UniProt Q7KYR7) belongs inactive: -0.012; to C12orf73 (UniProt Q69YU5), inactive: -0.058.
C9orf78 (UniProt Q9NZ63): the log2 fold change is inactive: 0.017.
The same measure, in the same setting: for C1orf52 (UniProt Q8N6N3) the value was inactive: 0.022; for CAD (UniProt P27708), inactive: 0.008.
Turning to CA13 (UniProt Q8N1Q1), the log2 fold change is inactive: 0.
Same read-out and setting: for CALB1 (UniProt P05937) the value was inactive: -0.041.
Same read-out and setting: to C1D (UniProt Q13901) belongs inactive: 0.033.
On the same count and under the same terms, for C16orf58 (UniProt Q96GQ5) the value was inactive: -0.08.
In the case of C9orf72 (UniProt Q96LT7), the log2 fold change was inactive: -0.009.
Consider C19orf53 (UniProt Q9UNZ5), for which the log2 fold change was inactive: 0.177.
On the same count and under the same terms, for CAPZB isoform 2 (UniProt P47756) the value was inactive: -0.04; for C7 (UniProt P10643), inactive: 0.11.
On the same count and under the same terms, for C18orf25 isoform 2 (UniProt Q96B23) the value was inactive: 0.034; for CARD8 isoform 5 (UniProt Q9Y2G2), inactive: 0.047.
